{"source": "PubChem BioAssay AID1259254 (NCATS, 2017)", "aim": "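Gene knock-downs that lead to re-replication, shown by excess G2 DNA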 (primary screen)", "cells": "human HCT116 colorectal cancer cells", "knock-down reagent": "single siRNA against human genes", "duration": "3 days", "measurement": "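Imaged Hoechst DNA stain sorts each cell into a cycle phase by DNA amount; per plate, G2 fraction set to 0% for non-targeting and 100% for GMNN siRNA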", "scale": "G2 robust z-score: higher = more G2 cells, more excess DNA replication", "call rule": "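Active siRNAs have a G2 robust z of 5 or more median absolute deviations over the median, which in these data means about 38% or higher of GMNN control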", "note": "In all, the deposit lists about 59,000 reagents; shown is an unselected part. Over the whole deposit, about 1,550 (2.6%) got an active call. 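G2 share is only a proxy for re-replication; each gene was hit by three separate siRNAs, and active genes were retested.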 Entries without a mark were called inactive. The numbers tell different reagents against one gene apart. Not all columns of the deposit are shown. Reagent sequences are not shown. Not stated in the record: the amount of reagent."}
{"target gene":"ZNF629 (zinc finger protein 629)","reagent no.":1,"G2 robust z-score":-0.889}
{"target gene":"ZNF629 (zinc finger protein 629)","reagent no.":2,"G2 robust z-score":0.868}
{"target gene":"ZNF629 (zinc finger protein 629)","reagent no.":3,"G2 robust z-score":-0.322}
{"target gene":"LAMP1 (lysosome associated membrane protein 1)","reagent no.":1,"G2 robust z-score":-0.626}
{"target gene":"LAMP1 (lysosome associated membrane protein 1)","reagent no.":2,"G2 robust z-score":1.3}
{"target gene":"LAMP1 (lysosome associated membrane protein 1)","reagent no.":3,"G2 robust z-score":-0.572}
{"target gene":"OR52I2 (olfactory receptor family 52 subfamily I member 2)","reagent no.":1,"G2 robust z-score":2.03}
{"target gene":"OR52I2 (olfactory receptor family 52 subfamily I member 2)","reagent no.":2,"G2 robust z-score":-0.0596}
{"target gene":"OR52I2 (olfactory receptor family 52 subfamily I member 2)","reagent no.":3,"G2 robust z-score":-0.723}
{"target gene":"UBXN1 (UBX domain protein 1)","reagent no.":1,"G2 robust z-score":-0.123}
{"target gene":"UBXN1 (UBX domain protein 1)","reagent no.":2,"G2 robust z-score":-0.305}
{"target gene":"UBXN1 (UBX domain protein 1)","reagent no.":3,"G2 robust z-score":-0.0788}
{"target gene":"LRRIQ1 (leucine rich repeats and IQ motif containing 1)","reagent no.":1,"G2 robust z-score":-0.75}
{"target gene":"LRRIQ1 (leucine rich repeats and IQ motif containing 1)","reagent no.":2,"G2 robust z-score":-0.412}
{"target gene":"LRRIQ1 (leucine rich repeats and IQ motif containing 1)","reagent no.":3,"G2 robust z-score":0.322}
{"target gene":"LIN37 (lin-37 DREAM MuvB core complex component)","reagent no.":1,"G2 robust z-score":"6.28 (active)"}
{"target gene":"LIN37 (lin-37 DREAM MuvB core complex component)","reagent no.":2,"G2 robust z-score":-0.483}
{"target gene":"LIN37 (lin-37 DREAM MuvB core complex component)","reagent no.":3,"G2 robust z-score":1.82}
{"target gene":"TCP10L2 (t-complex 10 like 2 (pseudogene))","reagent no.":1,"G2 robust z-score":0.164}
{"target gene":"TCP10L2 (t-complex 10 like 2 (pseudogene))","reagent no.":2,"G2 robust z-score":-0.815}
{"target gene":"TCP10L2 (t-complex 10 like 2 (pseudogene))","reagent no.":3,"G2 robust z-score":-1.4}
{"target gene":"RPS26P35 (ribosomal protein S26 pseudogene 35)","reagent no.":1,"G2 robust z-score":2.75}
{"target gene":"RPS26P35 (ribosomal protein S26 pseudogene 35)","reagent no.":2,"G2 robust z-score":3.06}
{"target gene":"RPS26P35 (ribosomal protein S26 pseudogene 35)","reagent no.":3,"G2 robust z-score":2.07}

Records listed so far called active (1):
{"target gene":"LIN37 (lin-37 DREAM MuvB core complex component)","reagent no.":1,"G2 robust z-score":"6.28 (active)"}
